Drawing on PubChem BioAssay AID662 (National Center for Advancing Translational Sciences (NCATS), 2007), this text covers AC50 for 68 molecules.

Broadly, the AC50 is the concentration giving half of the maximal activity seen.

The other results are listed elsewhere or left out. The main result of the screen is listed elsewhere. These columns were measured beside it and carry no call. The list favours compounds with an active or inconclusive main result. Words in brackets tell the shape of the fitted curve; partial curves, single points and poor fits give uncertain potencies.

The nature of the test: Cell signaling CRE-BLA (Fsk stim). The conditions noted are these: CHO CRE-bla reporter (cAMP response element driving beta-lactamase), forskolin EC10, beta-lactamase ratio; measured here: 460 nm blue channel. A digest of the protocol:
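Titrated compounds plus EC10 NKH 477 on CHO CRE-bla cells, 3 h, 37 °C. CCF4, 2 h RT. Ratio 460/530 nm → AC50.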
With `CCOC(=O)C1=C(C)NC(=O)N[C@@H]1c1coc2cc(C)cc(C)c2c1=O`, the AC50 was 1 µM [falling, single point].

`COc1cccc(Cn2c(=O)c(-c3cn(C)c4ccccc34)nc3cnc(OC)nc32)c1`: the AC50 was 12.6 µM [rising, partial curve].

`COc1ncc2nc(-c3cccs3)c(=O)n(Cc3ccc(F)cc3)c2n1`: the AC50 is 5.01 µM [rising, partial curve].

For `COc1ccc(Cn2c(CCC(=O)Nc3ccc(CC#N)cc3)nc3cccnc32)cc1`, the AC50 was 0.794 µM [rising, full curve].

In the case of `CCSc1nnc(NC(=O)c2nn(C(C)C)c(=O)c3ccccc23)s1`, the AC50 was 3.16 µM [rising, single point].

On to `CN(C)CCCn1c(N)c(C#N)c2nc(C#N)c(C#N)nc21`, for which the AC50 is 12.6 µM [rising, single point].

For `O=C(Nc1ccccc1)[C@@]12C[C@@H]1/C(=N/O)c1ccccc1O2`, the AC50 is 31.6 µM [falling, single point].

In the case of `COCCOC(=O)C1=C(C)NC2=C(C(=O)CC(C)(C)C2)C1c1cccnc1` (stereo not drawn), the AC50 is 12.6 µM [rising, single point].

For `CCN1C(=O)C(NC(C)=O)c2cc(OC)ccc21` (stereo not drawn), the AC50 is 3.98 µM [rising, single point].

`CCCc1cc(=O)[nH]c(SCC(=O)N(C)Cc2ccccc2)n1`: the AC50 is 3.98 µM [falling, partial curve].

With `Cc1oc(/N=C/c2cccc3ccccc23)c(C#N)c1C`, the AC50 is 0.00398 µM [falling, full curve, poor fit].

Turning to `Cn1c(=O)c2c(ncn2CC(=O)Nc2nc(-c3ccccc3Cl)cs2)n(C)c1=O`, the AC50 is 0.00316 µM [falling, full curve, poor fit].

As to `O=C1c2ccccc2C(=O)N1CCCc1nc2ccccc2c(=O)n1CCCn1ccnc1`, the AC50 is 10 µM [rising, partial curve].

Take `CCN(CCNC(=O)C1CCN(Cc2nc(-c3cccc(Cl)c3)oc2C)CC1)c1ccccc1`: the AC50 was 0.02 µM [falling, full curve].

Consider `COc1ccccc1N1CCN(CCCCNC(=O)c2ccc(-c3ccc(C(C)=O)cc3)cc2)CC1`, for which the AC50 was 12.6 µM [rising, single point].

Take `O=C(CSc1ncccc1-c1nc2ccccc2[nH]1)N1CCCCC1`: the AC50 was 10 µM [rising, single point].

Turning to `Cc1noc(C)c1CSCC(=O)OCc1nc2ccccc2c(=O)n1CC#N`, the AC50 was 12.6 µM [rising, single point].

For the molecule `CC1(C)Oc2ccc3ccc(=O)oc3c2-c2cnoc21`, the AC50 was 25.1 µM [rising, single point].

In the case of `CC(=O)N1CCN(c2ccc(NCc3ccc4c(c3)OCO4)cc2)CC1`, the AC50 was 25.1 µM [rising, single point].

For the molecule `Cn1c(=O)c2c(nc(N3CCCCC3)n2CCSc2nc3ccccc3o2)n(C)c1=O`, the AC50 is 0.0794 µM [rising, single point].

With `CCN(CC)CCNC(=O)c1cc2c(=O)n(C)c3ccccc3c2n1C`, the AC50 was 12.6 µM [rising, partial curve].

For the molecule `COc1ccc(-c2nc(-c3ccc(Br)o3)no2)cc1OC`, the AC50 is 10 µM [rising, partial curve].

Turning to `O=C(CSCc1ccco1)c1cccs1`, the AC50 is 3.16 µM [rising, single point].

Turning to `CC(C)C12CN3CC(C(C)C)(CN(C1)C3c1ccccc1O)C2=O` (stereo not drawn), the AC50 is 0.631 µM [rising, full curve, poor fit].

For the molecule `Cn1c(C(=O)NCc2ccccn2)cc2c(=O)n(C)c3ccccc3c21`, the AC50 is 3.16 µM [rising, full curve].

On to `Cc1noc(C)c1COC(=O)COc1cccc2c1OC(C)(C)C2`, for which the AC50 is 2.51 µM [falling, partial curve].

For `CCNc1ncc2nc(-c3ccccc3)c(=O)n(CCC#N)c2n1`, the AC50 was 12.6 µM [rising, partial curve].

Turning to `Cc1cc2n(n1)SC(Nc1ccccc1)N2` (stereo not drawn), the AC50 is 3.98 µM [falling, partial curve].

In the case of `O=C(CCCCn1c(=O)c2ccccc2n(Cc2ccc(Cl)cc2)c1=O)NCc1ccco1`, the AC50 was 3.98 µM [rising, full curve, poor fit].

`O=C1NCCCC1C(=O)NCCNC(=O)C(F)(F)F` (stereo not drawn): the AC50 is 0.2 µM [rising, partial curve].

Turning to `CCCCOCCCNC(=O)COc1ccccc1`, the AC50 was 0.794 µM [falling, full curve, poor fit].

Regarding `CCCCCCCCC(=O)NCc1cc(OC)c(O)cc1I`, the AC50 was 15.8 µM [falling, partial curve, poor fit].

Consider `COc1ccc(OC)c(/C=N/c2oc(-c3ccco3)c(-c3ccco3)c2C#N)c1`, for which the AC50 was 10 µM [rising, partial curve].

Turning to `COc1ccc(C(=O)NCc2cccnc2)cc1OC`, the AC50 was 12.6 µM [rising, partial curve].

Consider `CCOC(=O)c1c(C)n(C)c2ccc(O)c(CN(C)C)c12`, for which the AC50 is 25.1 µM [rising, single point].

Turning to `O=C(CSc1nc2ccccc2o1)Nc1ccccc1N1CCCCCC1`, the AC50 was 1 µM [rising, full curve, poor fit].

Take `C=CCNC(=O)NC(=O)COC(=O)COc1ccc(Br)cc1F`: the AC50 is 3.98 µM [falling, single point].

For the molecule `Cc1oc2c(CN(C)C)c(O)ccc2c(=O)c1-c1cscn1`, the AC50 was 5.01 µM [falling, single point].

As for `COc1cc(NS(=O)(=O)c2cc(C)ccc2OC)c(OC)cc1Cl`, the AC50 was 25.1 µM [rising, single point].

On to `CCc1ccc(-c2nc(CN3CCC(C(=O)N4CCN(c5ccccn5)CC4)CC3)c(C)o2)cc1`, for which the AC50 is 0.316 µM [falling, single point].

As to `COC(=O)C1=C(C)NC(C)=C([N+](=O)[O-])[C@H]1c1ccccc1C(F)(F)F`, the AC50 was 31.6 µM [falling, single point].

As for `CCN1CCN(C(=O)c2cc3c(=O)oc4ccc(C)cc4c3s2)CC1`, the AC50 was 2.51 µM [rising, full curve].

On to `CCOC(=O)c1sc2ccc(S(=O)(=O)N3CCCCC3)cc2c1N`, for which the AC50 was 25.1 µM [rising, single point].

Take `COc1ccc(CNC(=O)C2CC(c3cccc(OC)c3)=NO2)cc1` (stereo not drawn): the AC50 was 12.6 µM [rising, partial curve].

Regarding `CCN(CC)c1nc(Nc2ccccc2)nc(Oc2ccc(=O)[nH]n2)n1`, the AC50 is 10 µM [rising, partial curve].

Consider `Cc1nc(N2CCN(Cc3ccccc3)CC2)nc2c1C(=O)CC(c1ccco1)C2` (stereo not drawn), for which the AC50 was 5.01 µM [rising, partial curve].

As to `CCNc1nc(NC(C)C)nc(N(C#N)CCOc2ccc(Cl)cc2Cl)n1`, the AC50 was 25.1 µM [falling, single point].

Turning to `COCc1cc(C)nc2sc(C(=O)N3CCN(c4ccccc4)CC3)c(N)c12`, the AC50 was 12.6 µM [rising, partial curve].

In the case of `O=C(Cn1c(-c2ccccn2)nc2ccccc21)NCCN1CCOCC1`, the AC50 was 5.01 µM [falling, single point].

Turning to `Cc1ccc(CNC(=O)CN(C)S(=O)(=O)c2cccc3nsnc23)cc1`, the AC50 is 25.1 µM [rising, single point].

On to `Cc1nc(NCc2ccccc2)c2nc(-c3ccccc3)n(CCN3CCOCC3)c2n1`, for which the AC50 was 15.8 µM [rising, partial curve].

For `O=C(NCc1ccco1)c1ccc2c(c1)C(=O)c1ccccc1-2`, the AC50 was 7.94 µM [rising, partial curve].

In the case of `COc1ccc(CN(Cc2cc3cc4c(cc3[nH]c2=O)OCO4)C(=O)NC2CCCCC2)cc1`, the AC50 was 10 µM [rising, partial curve].

Turning to `O=c1[nH]c2c(c3c1CCCC3)CCCC2`, the AC50 is 0.00398 µM [falling, full curve, poor fit].

As for `N#Cc1c2n(c3c(-c4ccccc4)ncnc13)CCC2`, the AC50 was 10 µM [rising, single point].

On to `CSc1nsc(SC)c1NC(=O)OCC1CCCO1` (stereo not drawn), for which the AC50 is 0.00398 µM [falling, full curve, poor fit].

Take `CCCNC(=O)c1c(N)n(-c2ccc3c(c2)OCO3)c2nc3ccccc3nc12`: the AC50 is 0.794 µM [rising, full curve].

On to `O=C(COc1ncnc2ccccc12)N1CCN(S(=O)(=O)c2ccc(Cl)cc2)CC1`, for which the AC50 is 5.01 µM [falling, single point].

With `CN(C)c1ncc2nc(-c3cccs3)c(=O)n(CCC#N)c2n1`, the AC50 is 15.8 µM [rising, partial curve].

With `Cc1noc(C)c1-c1ccc2ncnc(N3CCOCC3)c2c1`, the AC50 is 10 µM [rising, single point].

On to `COCc1cc(=O)n2c([nH]c3ccccc32)c1C#N`, for which the AC50 is 7.94 µM [rising, partial curve].

In the case of `Cc1nc2scc(-c3cccs3)c2c(=O)o1`, the AC50 is 5.01 µM [falling, partial curve].

For the molecule `C=CCn1c(C)cc(C(=O)CSc2nnc(-c3cccc(S(=O)(=O)N(CC)CC)c3)o2)c1C`, the AC50 was 3.16 µM [rising, single point].

As to `O=C(CSCc1c(F)cccc1Cl)NCc1ccco1`, the AC50 is 5.01 µM [falling, single point].

Take `N#Cc1cccc(-c2nc3cnc(N4CCOCC4)nc3n(C[C@H]3CCCO3)c2=O)c1`: the AC50 is 31.6 µM [rising, partial curve, poor fit].

As to `CCN(CCNC(=O)C1CCN(S(=O)(=O)c2cccc3cccnc23)CC1)c1ccccc1`, the AC50 is 10 µM [falling, partial curve].

For `COc1ccc(Oc2ncc3nc(C)c(=O)n(C4CC4)c3n2)cc1`, the AC50 was 15.8 µM [rising, partial curve].

On to `CCOC(=O)N1CCC(NC(=O)C(C)n2c3ccccc3c3cnn(C)c(=O)c32)CC1` (stereo not drawn), for which the AC50 is 25.1 µM [rising, single point].
